# Data taken from PubChem BioAssay AID1671190 (National Center for Advancing Translational Sciences (NCATS), 2021).
# Protein sequences, listed by entry. Tags and fused reporters are not part of them. Lines headed by an entry give the natural chain unless they say otherwise; changes in a name come on top.
# UniProt P18054: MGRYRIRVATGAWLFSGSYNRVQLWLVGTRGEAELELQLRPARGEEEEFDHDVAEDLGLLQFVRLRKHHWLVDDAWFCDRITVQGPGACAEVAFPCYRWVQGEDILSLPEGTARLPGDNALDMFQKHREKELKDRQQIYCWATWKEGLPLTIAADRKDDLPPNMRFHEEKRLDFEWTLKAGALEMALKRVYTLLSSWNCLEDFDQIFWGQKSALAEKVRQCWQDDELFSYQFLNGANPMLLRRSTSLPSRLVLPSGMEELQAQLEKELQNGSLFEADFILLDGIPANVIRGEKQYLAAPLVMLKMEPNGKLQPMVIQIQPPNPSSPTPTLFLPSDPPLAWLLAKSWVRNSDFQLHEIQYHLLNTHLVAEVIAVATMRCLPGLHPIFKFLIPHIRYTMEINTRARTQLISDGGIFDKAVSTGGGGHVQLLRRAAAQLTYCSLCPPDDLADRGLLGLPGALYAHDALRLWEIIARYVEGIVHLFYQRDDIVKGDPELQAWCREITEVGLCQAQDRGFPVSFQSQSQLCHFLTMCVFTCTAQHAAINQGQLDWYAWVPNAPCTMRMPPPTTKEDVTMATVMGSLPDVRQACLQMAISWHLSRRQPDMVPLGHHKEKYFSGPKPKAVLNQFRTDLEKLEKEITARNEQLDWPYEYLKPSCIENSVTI
# About 6,100 (1.1%) of roughly 580,000 compounds were called active. Inconclusive results, whose numbers are uncertain, are shown with a selection of clear calls. Calls come from the whole dose curve; as a rule, active = well fitted inhibition curve with a large enough effect; inconclusive = small, poorly fitted or top-dose-only effect, or another doubt; inactive = no such curve, though single readings can be large or run the other way. Potencies beside an inconclusive call are fits to weak or partial responses and may not hold up.
# Target: Polyunsaturated fatty acid lipoxygenase ALOX12 (Homo sapiens) (UniProt P18054)
# Assay: Primary qHTS assay for inhibitors of human arachidonate 12S-lipoxygenase (ALOX12): Round 2
# Conditions: purified 12hLO, xylenol orange hydroperoxide absorbance; activity change, negative = inhibition: at 108 µM (top of the series) unless noted
# Procedure, shortened: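 Purified human 12hLO (150 nM final) in 25 mM Hepes, 0.01% Triton X-100, pH 7.0 was preincubated 15 min at room temperature with compound. Then 40 uM arachidonic acid was added, 30 min. Hydroperoxide was read by Fe-XO absorbance ratio 573/405 nm.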
# % is set by controls: 0 for no effect and ±100 for the full control effect; potency is the fitted concentration of half-maximal effect.
Compound,Potency,"activity change, negative = inhibition"
CC(C)CCN1CC2(CCCN(C(=O)c3cc(C(F)(F)F)[nH]n3)C2)CCC1=O (stereo not drawn),"inconclusive: 11.2 µM [inhibitor, partial curve, poor fit]",–
O=C(NC(=S)NNC(=O)c1cc2ccccc2cc1O)c1ccco1,"inconclusive: 15.8 µM [inhibitor, partial curve, poor fit]",–
O=C1Nc2cc(C(=O)N3CCOCC3)ccc2S/C1=C\c1ccccc1,–,inactive: 4.42%
CCCNC(N)=S,"inconclusive: 44.7 µM [inhibitor, partial curve, poor fit]",–
Cc1cc(Nc2cccc(C(=O)O)c2)n2nc(C)nc2n1,"inconclusive: 31.6 µM [inhibitor, partial curve, poor fit]",–
Cc1c(Br)c(O)c(Br)c2sc(=O)oc12,–,inactive: -86.6%
O=C(Nc1ccc(C(=O)N2CCOCC2)cc1)c1cc(-c2ccc(Cl)s2)nc2ccccc12,"inconclusive: 10 µM [inhibitor, full curve]",–
COc1ccc(NC2CC(=O)N(CCc3ccccc3)C2=O)cc1 (stereo not drawn),"inconclusive: 10 µM [inhibitor, full curve, poor fit]",–
CC(=NNS(=O)(=O)c1ccc([N+](=O)[O-])cc1)c1ccc(C)cc1,"inconclusive: 100 µM [inhibitor, single point]",–
Cc1ccc(C2c3sc(=O)[nH]c3SC3C(=O)NC(=O)C32)cc1 (stereo not drawn),"inconclusive: 35.5 µM [inhibitor, partial curve, poor fit]",–
CCN1C(=S)N[C@@H](CCc2ccccc2)C(C(=O)OC)=C1C,"inconclusive: 35.5 µM [inhibitor, partial curve, poor fit]",–
COCCNC(=S)N(C)[C@H]1C[C@H]2c3cc(-c4ccccc4)ccc3CCN2C(=O)[C@H]1[C@H](C)O,"inconclusive: 50.1 µM [inhibitor, partial curve, poor fit]",–
COc1ccc(-c2nc3ccccc3o2)cc1NC(=O)c1cccnc1,"inconclusive: 112 µM [inhibitor, partial curve, poor fit]",–
Cc1nn(CC(=O)Nc2nc3ccccc3s2)c(=O)c2ccccc12,"inconclusive: 89.1 µM [inhibitor, single point]",–
O=C(O)C[C@@H]1CCN(C(=O)c2ccccc2)C[C@@H]1CCN1CCN(c2ccccn2)CC1,"inconclusive: 8.91 µM [inhibitor, full curve]",–
CN(CC(=O)NC1(C#N)CCCC1)Cc1ccc(C(F)(F)F)cc1,"inconclusive: 3.98 µM [inhibitor, full curve, poor fit]",–
CCN(C(=O)CSc1nc2cc(C(=O)O)ccc2c(=O)n1-c1ccccc1F)C1CCS(=O)(=O)C1 (stereo not drawn),–,inactive: -1.08%
CC(=O)Nc1ccc(C(=O)COC(=O)CN2C(=O)NC3(CCCCC3C)C2=O)cc1 (stereo not drawn),"inconclusive: 100 µM [inhibitor, single point]",–
COc1cc(OC)cc(-c2sc3ccc(OC)cc3c2C#CCCO)c1,"inconclusive: 20 µM [inhibitor, partial curve, poor fit]",–
Cc1ccc(-c2cnc(-c3ccccc3C(=O)O)o2)cc1,"inconclusive: 39.8 µM [inhibitor, partial curve, poor fit]",–
COc1ccc(CNC(=S)Nc2cc(OC)ccc2OC)cc1,"inconclusive: 141 µM [inhibitor, partial curve, poor fit]",–
O=C(COc1ccc(F)cc1Cl)Nc1ccc(N2CCOCC2)cc1N1CCOCC1,"inconclusive: 44.7 µM [inhibitor, partial curve, poor fit]",–

Compound,Potency,"activity change, negative = inhibition"
CCN(CC)CCCNC(=O)c1ccc2c(c1)sc1nc(-c3ccc(C)cc3)cn12,"inconclusive: 39.8 µM [inhibitor, partial curve, poor fit]",–
CCOC(=O)C1Cc2c([nH]c3ccccc23)CN1 (stereo not drawn),"inconclusive: 8.91 µM [inhibitor, full curve, poor fit]",–
O=C(CC1C(=O)NCCN1Cc1c(F)cccc1Cl)NCCCn1cccn1 (stereo not drawn),"inconclusive: 31.6 µM [inhibitor, single point]",–
COc1cccc(-c2ocnc2C(=O)NCc2cc(OC)ccc2OC)c1,–,inactive: 2.18%
Cc1ccoc1C(=O)N1CCCC(CCC(=O)N2CCN(c3ccccn3)CC2)C1 (stereo not drawn),"inconclusive: 100 µM [inhibitor, single point]",–
O=C(Nc1cccc2cccnc12)C1(c2ccccc2)CCC1,–,inactive: 25.3%
C=C1CN(CC(=O)OC)S(=O)(=O)c2ccccc21,–,inactive: -11.8%
CCNC(=O)CNC(=O)CSc1cc(C)c2cccc(C)c2n1,–,inactive: 9.76%
CCCCCCCCCCCCNC(=O)c1cccs1,–,inactive: -1.56%
Cc1noc(C)c1COc1ccccc1C(=O)NCCOc1ccccc1F,"inconclusive: 79.4 µM [inhibitor, single point]",–
CC(=O)c1ccccc1NC(=O)CSc1nc2ccccc2c(=O)n1CCCN1CCOCC1,–,inactive: -2.36%
COc1cccc(NC2=C(C#N)C(=O)NC(c3cccc(OC)c3O)S2)c1 (stereo not drawn),"inconclusive: 31.6 µM [inhibitor, partial curve, poor fit]",–
CN(C)C/C(Cl)=C(\Cl)c1ccccc1,"inconclusive: 31.6 µM [inhibitor, partial curve, poor fit]",–
CC(=O)NC(CO)C(=O)N1CCC(O)(c2ccc(C)cn2)CC1 (stereo not drawn),"inconclusive: 12.6 µM [inhibitor, full curve, poor fit]",–
Brc1cccc(-c2nc3c4ccccc4ccn3c2Cc2ccccc2)c1,–,inactive: 0.0598%
CC(=O)Nc1cccc(NC(=S)Nc2ccc(F)c(Cl)c2)c1,"inconclusive: 100 µM [inhibitor, single point]",–
CC1CC(C#N)NC(=S)N1 (stereo not drawn),"inconclusive: 39.8 µM [inhibitor, partial curve, poor fit]",–
O=C(NCCCO)c1nc(Cc2c[nH]c3ccccc23)no1,–,inactive: -6.19%
O=C(Nc1ccc2nc(SCc3ccc(I)cc3)sc2c1)C1CCCCC1,–,inactive: 2.74%
CCC(C)N(Cc1ccc(OC)cc1OC)S(=O)(=O)c1cc(Br)ccc1Br (stereo not drawn),"inconclusive: 39.8 µM [inhibitor, partial curve, poor fit]",–
N[C@]1(C(=O)O)CCc2cc(C(=O)O)ccc21,"inconclusive: 25.1 µM [inhibitor, partial curve, poor fit]",–

# Of the compounds above, two have a CF3 group:
Compound,Potency,"activity change, negative = inhibition"
CC(C)CCN1CC2(CCCN(C(=O)c3cc(C(F)(F)F)[nH]n3)C2)CCC1=O (stereo not drawn),"inconclusive: 11.2 µM [inhibitor, partial curve, poor fit]",–
CN(CC(=O)NC1(C#N)CCCC1)Cc1ccc(C(F)(F)F)cc1,"inconclusive: 3.98 µM [inhibitor, full curve, poor fit]",–
